Source: the supplement of paper PMC6078165
The reference is the same well before dosing, and untreated signal decays as well.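 Fibroblast labels name human fibroblasts: mostly primary ones from tissues such as uterus (C12385, HUF), lung (H6013), bone (Hs27A), adrenal (HADF) and skin (WS1), plus mammary HMF and breast cancer-associated Hs343T. The cancer cells are basal-like or mesenchymal-like triple-negative breast cancer lines. The paper calls a changed response a hit when it shifts by more than 3x the replicate standard deviation. The tissue of the other fibroblasts is not given here.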

Test system: HCC1143
Assay: relative JC-1 red fluorescence (viability) vs pre-drug, coculture with fibroblast (fraction); higher = more viable cancer cells
Procedure: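 JC-1 labelled TNBC cells cocultured 1:1 (1,500 cells each) with CellTrace Violet stained primary or stromal fibroblasts in 384-well plates in FluoroBrite medium, treated with one of 42 anticancer drugs at 0.1, 1, 10 or 100 uM. JC-1 red fluorescence (mitochondrial integrity in cancer cells only) was read by plate reader every 8 h for 72 h. Values are normalised to each well's pre-drug value. The stock of one drug was tenfold lower, so its dose labels may be too high.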

CC[C@]1(O)C[C@H]2CN(CCc3c([nH]c4ccccc34)[C@@](C(=O)OC)(c3cc4c(cc3OC)N(C=O)[C@H]3[C@@](O)(C(=O)OC)[C@H](OC(C)=O)[C@]5(CC)C=CCN6CC[C@]43[C@@H]65)C2)C1 [Vincristine]
relative JC-1 red fluorescence
Details | 8 h | 16 h | 24 h | 32 h | 40 h | 48 h | 56 h | 64 h | 72 h
0.1 µM, coculture fibroblast: C12385 | 0.801 | 0.741 | 0.713 | 0.667 | 0.637 | 0.644 | 0.638 | 0.631 | 0.648
0.1 µM, coculture fibroblast: H6013 | 0.822 | 0.793 | 0.771 | 0.77 | 0.751 | 0.769 | 0.764 | 0.775 | 0.739
0.1 µM, coculture fibroblast: H6019 | 0.809 | 0.758 | 0.76301 | 0.722 | 0.708 | 0.726 | 0.707 | 0.706 | 0.698
0.1 µM, coculture fibroblast: H6076 | 0.807 | 0.795 | 0.755 | 0.7278 | 0.697 | 0.691 | 0.671 | 0.655 | 0.679
0.1 µM, coculture fibroblast: H6231 | 0.784 | 0.763 | 0.7 | 0.621 | 0.609 | 0.582 | 0.539 | 0.515 | 0.509
0.1 µM, coculture fibroblast: HADF | 0.795 | 0.763 | 0.736 | 0.734 | 0.668 | 0.659 | 0.635 | 0.63 | 0.598
0.1 µM, coculture fibroblast: HCFa | 0.804 | 0.736 | 0.707 | 0.699 | 0.612 | 0.595 | 0.557 | 0.532 | 0.505
0.1 µM, coculture fibroblast: HCPF | 0.792 | 0.841 | 0.771 | 0.67 | 0.686 | 0.657 | 0.624 | 0.588 | 0.579
0.1 µM, coculture fibroblast: HHSteC | 0.862 | 0.82 | 0.797 | 0.766 | 0.698 | 0.684 | 0.65 | 0.629 | 0.584
0.1 µM, coculture fibroblast: HMF | 0.8 | 0.831 | 0.74099 | 0.6662 | 0.6454 | 0.614 | 0.581 | 0.555 | 0.542
0.1 µM, coculture fibroblast: HPFa | 0.89 | 0.795 | 0.761 | 0.6734 | 0.605 | 0.594 | 0.569 | 0.554 | 0.544
0.1 µM, coculture fibroblast: HUF | 0.8528 | 0.7819 | 0.724 | 0.65883 | 0.6029 | 0.59055 | 0.556 | 0.541 | 0.523
0.1 µM, coculture fibroblast: Hs5 | 0.854 | 0.838 | 0.7937 | 0.8014 | 0.722 | 0.7019 | 0.6826 | 0.666 | 0.68317
0.1 µM, coculture fibroblast: Hs27A | 0.716 | 0.661 | 0.636 | 0.669 | 0.55 | 0.548 | 0.527 | 0.5212 | 0.5281
0.1 µM, coculture fibroblast: Hs343T | 0.825 | 0.835 | 0.782 | 0.716 | 0.701 | 0.672 | 0.634 | 0.621 | 0.599
0.1 µM, coculture fibroblast: WS1 | 0.802 | 0.736 | 0.692 | 0.618 | 0.574 | 0.558 | 0.526 | 0.527 | 0.528
1 µM, coculture fibroblast: C12385 | 0.845 | 0.765 | 0.6874 | 0.63817 | 0.571 | 0.536 | 0.5 | 0.469 | 0.449
1 µM, coculture fibroblast: H6013 | 0.7935 | 0.723 | 0.691 | 0.689 | 0.615 | 0.601 | 0.574 | 0.562 | 0.566
1 µM, coculture fibroblast: H6019 | 0.83 | 0.774 | 0.741 | 0.688 | 0.664 | 0.657 | 0.632 | 0.614 | 0.597
1 µM, coculture fibroblast: H6076 | 0.813 | 0.809 | 0.751 | 0.717 | 0.6712 | 0.668 | 0.655 | 0.641 | 0.657
1 µM, coculture fibroblast: H6231 | 0.8142 | 0.815 | 0.706 | 0.579 | 0.606 | 0.572 | 0.525 | 0.494 | 0.474
1 µM, coculture fibroblast: HADF | 0.745 | 0.6706 | 0.6261 | 0.615 | 0.527 | 0.497 | 0.464 | 0.447 | 0.437
1 µM, coculture fibroblast: HCFa | 0.772 | 0.68 | 0.616 | 0.587 | 0.489 | 0.448 | 0.411 | 0.38 | 0.387
1 µM, coculture fibroblast: HCPF | 0.829 | 0.843 | 0.781 | 0.679 | 0.698 | 0.664 | 0.631 | 0.605 | 0.601
1 µM, coculture fibroblast: HHSteC | 0.81 | 0.735 | 0.691 | 0.653 | 0.583 | 0.55 | 0.508 | 0.484 | 0.453
1 µM, coculture fibroblast: HMF | 0.795 | 0.839 | 0.7508 | 0.656 | 0.662 | 0.629 | 0.586 | 0.56 | 0.539
1 µM, coculture fibroblast: HPFa | 0.9412 | 0.8499 | 0.824 | 0.741 | 0.663 | 0.632 | 0.5732 | 0.551 | 0.5308
1 µM, coculture fibroblast: HUF | 0.892 | 0.8216 | 0.756 | 0.68 | 0.636 | 0.607 | 0.567 | 0.536 | 0.512
1 µM, coculture fibroblast: Hs5 | 0.84 | 0.868 | 0.795 | 0.753 | 0.6999 | 0.6701 | 0.6427 | 0.61709 | 0.6089
1 µM, coculture fibroblast: Hs27A | 0.748 | 0.677 | 0.628 | 0.659 | 0.5468 | 0.533 | 0.501 | 0.486 | 0.48
1 µM, coculture fibroblast: Hs343T | 0.80759 | 0.838 | 0.743 | 0.6576 | 0.645 | 0.606 | 0.561 | 0.546 | 0.523
1 µM, coculture fibroblast: WS1 | 0.851 | 0.77 | 0.7136 | 0.642 | 0.593 | 0.553 | 0.52 | 0.493 | 0.476
